The campaign covered roughly 360,000 compounds. About 7,500 (2.1%) were called active. Inconclusive means that the source gave no clear call. Such entries were picked first, then a sample of the others. The call rests on the fitted dose curve; in most records, active means well fitted inhibition curve with a large enough effect; inconclusive means small, poorly fitted or top-dose-only effect, or effect the other way; inactive means flat fitted curve, though single readings scatter. A potency beside an inconclusive call is a rough fit, not a confirmed value.
Assay: Nrf2 qHTS screen for inhibitors; further: nearly all actives have a fitted effect of over 60% in size
Conditions: A549 ARE-Fluc reporter, luciferase luminescence, 18-24 h; activity change, negative = inhibition: at 46 µM (top of the series)
Summary of the method: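 Nrf2 activity is the BugLite luminescence, read 15 min after reagent at room temperature, following CellTiter-Fluor cytotoxicity readout (30 min, 37C). Compound titrations were applied for 18-24 h to 5000 A549 ARE_Fluc cells/well in 5% FBS OPTI-MEM.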
On the % scale 0 is the no-effect control and ±100 the full control effect; potency means the concentration at half of the fitted maximal effect.

Compound | Potency | activity change, negative = inhibition
C#CCOc1c(Cl)cc(/C=N/NC(N)=S)cc1OCC | inconclusive: 18.4 µM [falling, partial curve] | –
Cc1ccccc1OCC(=O)N/N=C/c1cc2ccccc2nc1Cl | active: 18.4 µM | –
Cc1csc2ncc(C(=O)NCc3ccccc3Cl)c(=O)n12 | – | inactive: 17.7%
C=CCN1C(=O)c2ccc(C(=O)NCCOc3ccccc3F)cc2C1=O | inconclusive: 9.2 µM [activator, partial curve] | –
O=C(COc1ccc(Cl)cc1)N1CCN(S(=O)(=O)c2ccccc2)CC1 | inconclusive: 13 µM [falling, partial curve, poor fit] | –
CCOC(=O)c1ccc(NC(=O)C2CC3CCC2C3)cc1 (centres undefined) | inconclusive: 4.11 µM [activator, full curve] | –
COc1ccc(-c2nc(Cn3c(SCc4ccc(C)cc4)nc4cccnc43)c(C)o2)cc1OC | inconclusive: 23.1 µM [falling, partial curve, poor fit] | –
C[C@@]12C(=O)Nc3ccc(Br)cc3C(=O)N1[C@H]1c3cc(Cl)ccc3OC[C@@H]1[C@@H]2c1ccccc1 | inconclusive: 11.6 µM [activator, partial curve] | –
CC(C)(C)n1cnc2cc(NCc3ccccc3O)ccc21 | inconclusive: 29.1 µM [activator, single point] | –
COc1nc(-c2ccccc2)ccc1-c1noc(C)n1 | inconclusive: 18.4 µM [activator, single point] | –
O=[N+]([O-])c1ccc(-c2cnc3ccccc3n2)cc1 | inconclusive: 29.1 µM [activator, single point] | –
CCOC(=O)C1CCCN(C(=O)c2ccc3c(c2)OCCO3)C1 (centres undefined) | inconclusive: 18.4 µM [activator, partial curve, poor fit] | –
CCN(CC)c1cc2c(cc1F)c(=O)c(S(=O)(=O)c1cc(C)ccc1C)cn2Cc1ccccc1 | inconclusive: 29.1 µM [falling, single point] | –
CCOc1ccc(-c2noc(CCCC(=O)NC3CCCCC3)n2)cc1OC | inconclusive: 29.1 µM [falling, single point] | –
O=C(NCc1cccs1)c1nc2c(nnn2Cc2ccccc2Cl)c(=O)[nH]1 | active: 5.8 µM | –
COc1ccc2cc3cc(C(=O)NCc4ccc5c(c4)OCO5)oc3nc2c1 | inconclusive: 8.2 µM [falling, partial curve] | –
O=C(Nc1ccccc1)C1COc2ccccc2O1 (centres undefined) | inconclusive: 5.8 µM [activator, full curve, poor fit] | –
Cc1cccc(CC2C(=O)Nc3ccccc32)c1 (centres undefined) | inconclusive: 13 µM [falling, partial curve] | –
COc1ccccc1C(=O)Nc1ccc(OCC(=O)N2CCCCC2)cc1 | inconclusive: 18.4 µM [falling, partial curve] | –
CCOc1ccccc1-n1nnc(-c2nc(-c3ccccc3)no2)c1N | inconclusive: 0.651 µM [activator, full curve] | –
O=C(c1ccccc1Br)N1CCN(c2ccccn2)CC1 | – | inactive: -8.24%
CCN(CC)CCCNC(=O)/C=C/C(=O)O | – | inactive: -0.651%

Compound | Potency | activity change, negative = inhibition
Cc1c(/C=C(\C#N)C(=O)Nc2cccc(Cl)c2)c2ccccc2n1Cc1ccccc1Cl | inconclusive: 0.231 µM [falling, full curve, poor fit] | –
Cn1c(N2CCCC2)nc2c1c(=O)n(Cc1ccc(Cl)cc1)c(=O)n2C | inconclusive: 18.4 µM [falling, single point] | –
COc1cc(/C=N/Nc2nc(Nc3ccc(C)cc3)nc(-n3nc(C)cc3C)n2)cc(OC)c1OC | inconclusive: 8.2 µM [falling, partial curve] | –
CC(C)(C)CC(C)(C)NC(=O)CSCC(=O)Nc1ccc2ccccc2c1 | active: 16.4 µM | –
Cc1ccccc1NS(=O)(=O)c1ccc(Br)s1 | inconclusive: 29.1 µM [falling, single point] | –
Cc1oc2c(cc(NS(=O)(=O)c3ccc4c5c(cccc35)C(=O)N4)c3ccccc32)c1C(=O)OC(C)C | inconclusive: 23.1 µM [falling, single point] | –
CC1CN(S(=O)(=O)c2ccc(C(=O)NCCCn3ccnc3)cc2)CC(C)O1 (centres undefined) | inconclusive: 0.291 µM [falling, full curve] | –
COc1cc(SC)ccc1C(=O)N(CC(=O)Nc1ccccc1Br)Cc1ccco1 | – | inactive: -7.28%
Cc1ccc(C)c(Nc2nc(-c3cccnc3)cs2)c1 | inconclusive: 25.9 µM [activator, single point] | –
CCOC(=O)c1cnc(SCc2nc(N)nc(Nc3ccc(OC)cc3)n2)nc1N | – | inactive: -25.3%
CCCc1nc(SCC(=O)Nc2cc(C)on2)c2ccccc2n1 | inconclusive: 29.1 µM [falling, single point] | –
O=C(NC1CC1)c1cccc2c1C(=O)c1ccc(N3CCC(Cc4ccccc4)CC3)cc1S2(=O)=O | inconclusive: 29.1 µM [falling, single point] | –
Cc1cc(C)c(S(=O)(=O)NCc2cn3ccccc3n2)c(C)c1 | inconclusive: 0.0046 µM [falling, full curve, poor fit] | –
CCc1cccc(C)c1NC(=O)Cn1ccn(-c2ccc(F)cc2)c(=O)c1=O | – | inactive: 24.6%
CCOc1ccc(C2CC(=O)c3c([nH]c(C(=O)OCc4ccccc4)c3C)C2)cc1 (centres undefined) | inconclusive: 3.66 µM [falling, partial curve, poor fit] | –
Cc1cccc(C(=O)N[C@H](C(=O)Nc2nc3ccccc3[nH]2)C(C)C)c1 | inconclusive: 2.91 µM [activator, partial curve, poor fit] | –
C=CC1=CCN(S(=O)C(C)(C)C)[C@@H]1CCO (some centres undefined) | inconclusive: 32.6 µM [activator, single point] | –
CCCn1nnc(NC(=O)c2cc3ccccc3o2)n1 | inconclusive: 1.84 µM [activator, partial curve, poor fit] | –
O=C(CCl)NCc1c(Cl)cccc1-n1cccc1 | inconclusive: 1.84 µM [falling, partial curve] | –
COc1cc(/C(C)=N/NC(=O)c2nnn(-c3nonc3N)c2-c2cccs2)ccc1O | inconclusive: 20.6 µM [activator, single point] | –
COc1ccc2nc(C)cc(Sc3nc4ccccc4s3)c2c1 | inconclusive: 18.4 µM [falling, single point] | –
Cc1cccc(N2CCN(CC(=O)Nc3ccc(S(=O)(=O)N4CCOCC4)cc3)CC2)c1C | active: 16.4 µM | –

Compound | Potency | activity change, negative = inhibition
Cc1ccc2cc(CCNC(=O)c3ccc(S(=O)(=O)N4CCOCC4)cc3)c(=O)[nH]c2c1C | inconclusive: 20.6 µM [falling, partial curve, poor fit] | –
CC(Oc1cc2oc(=O)c3c(c2cc1Cl)CCC3)C(=O)NCc1cccnc1 (centres undefined) | inconclusive: 0.206 µM [falling, full curve, poor fit] | –
Brc1ccc(-c2n(-c3ccccn3)c3ccccc3[n+]2-c2ccccn2)cc1 | inconclusive: 18.4 µM [falling, single point] | –
COC(=O)[C@@]12CCCCN1[C@H](c1ccc(-c3ccc4c(c3)OCO4)cc1)[C@H]1C(=O)N(C)C(=O)[C@H]12 | inconclusive: 20.6 µM [falling, single point] | –
COc1ccccc1NS(=O)(=O)c1ccc2oc(SCc3ccc(F)cc3)nc2c1 | active: 23.1 µM | –
CC(=O)c1c(N2CCN(c3cccc(Cl)c3)CC2)nc(=S)n(-c2ccccc2)c1C | inconclusive: 23.1 µM [falling, single point] | –
COc1cccc(C(=O)N(Cc2cc3cc(C)ccc3[nH]c2=O)CC2CCCO2)c1 (centres undefined) | – | inactive: -0.891%
CC(C)(C)c1ccc(Oc2ccc(NC(=O)c3ccco3)cn2)cc1 | inconclusive: 29.1 µM [falling, single point] | –
CCOc1ccc2nc(N3CCC(C(=O)N4CCN(C(=O)c5ccco5)CC4)CC3)sc2c1 | inconclusive: 32.6 µM [falling, single point] | –
C=CCNc1nc(C(=O)OCC(=O)c2ccccc2)cs1 | inconclusive: 4.11 µM [activator, full curve] | –
COc1ccc(S(=O)(=O)N(CCc2ccccc2)CC(=O)Nc2cccc(OC)c2)cc1 | inconclusive: 29.1 µM [falling, single point] | –
O=C(c1ccc(Cl)cc1)C1CCN(C(=O)c2ccccc2F)CC1 | inconclusive: 32.6 µM [falling, partial curve, poor fit] | –
Cc1ccc(Nc2nc(NCc3ccco3)nc3nccnc23)cc1Cl | inconclusive: 16.4 µM [activator, partial curve, poor fit] | –
CC(C)(C)c1ccc(OCc2ccc(C(=O)N3CCOCC3)o2)cc1 | inconclusive: 29.1 µM [falling, single point] | –
CCc1ccc(C(=O)COC(=O)C(Cc2c[nH]c3ccccc23)NC(=O)c2ccc(Br)cc2)cc1 (centres undefined) | – | inactive: 6.1%
COc1ccc(C(=O)Nc2ccc(C)c(S(=O)(=O)N3CCOCC3)c2)cc1S(=O)(=O)N1CCCC1 | – | inactive: -20.9%
COc1ccc(N=[N+]([O-])c2ccc(OC)cc2)cc1 | inconclusive: 20.6 µM [activator, single point] | –
CC1=NN(C(N)=S)C(=O)C1N=Nc1ccccc1C (centres undefined) | inconclusive: 16.4 µM [activator, partial curve, poor fit] | –
CCOc1ccc(C2c3cc(OCC)c(OCC)cc3CC(=O)N2c2ccc(C(=O)O)cc2)cc1OCC (centres undefined) | inconclusive: 25.9 µM [falling, partial curve, poor fit] | –
CCOc1ccc(S(=O)(=O)N2CCCCC2)cc1NC(=O)Cc1ccccc1 | inconclusive: 23.1 µM [falling, single point] | –

A portion of the results above, as a working copy:
Compound | Potency | activity change, negative = inhibition
Brc1ccc(-c2n(-c3ccccn3)c3ccccc3[n+]2-c2ccccn2)cc1 | inconclusive: 18.4 µM [falling, single point] | –
COC(=O)[C@@]12CCCCN1[C@H](c1ccc(-c3ccc4c(c3)OCO4)cc1)[C@H]1C(=O)N(C)C(=O)[C@H]12 | inconclusive: 20.6 µM [falling, single point] | –
COc1ccccc1NS(=O)(=O)c1ccc2oc(SCc3ccc(F)cc3)nc2c1 | active: 23.1 µM | –
CC(=O)c1c(N2CCN(c3cccc(Cl)c3)CC2)nc(=S)n(-c2ccccc2)c1C | inconclusive: 23.1 µM [falling, single point] | –
COc1cccc(C(=O)N(Cc2cc3cc(C)ccc3[nH]c2=O)CC2CCCO2)c1 (centres undefined) | – | inactive: -0.891%
CC(C)(C)c1ccc(Oc2ccc(NC(=O)c3ccco3)cn2)cc1 | inconclusive: 29.1 µM [falling, single point] | –
CCOc1ccc2nc(N3CCC(C(=O)N4CCN(C(=O)c5ccco5)CC4)CC3)sc2c1 | inconclusive: 32.6 µM [falling, single point] | –
C=CCNc1nc(C(=O)OCC(=O)c2ccccc2)cs1 | inconclusive: 4.11 µM [activator, full curve] | –
COc1ccc(S(=O)(=O)N(CCc2ccccc2)CC(=O)Nc2cccc(OC)c2)cc1 | inconclusive: 29.1 µM [falling, single point] | –
O=C(c1ccc(Cl)cc1)C1CCN(C(=O)c2ccccc2F)CC1 | inconclusive: 32.6 µM [falling, partial curve, poor fit] | –
Cc1ccc(Nc2nc(NCc3ccco3)nc3nccnc23)cc1Cl | inconclusive: 16.4 µM [activator, partial curve, poor fit] | –
CC(C)(C)c1ccc(OCc2ccc(C(=O)N3CCOCC3)o2)cc1 | inconclusive: 29.1 µM [falling, single point] | –
CCc1ccc(C(=O)COC(=O)C(Cc2c[nH]c3ccccc23)NC(=O)c2ccc(Br)cc2)cc1 (centres undefined) | – | inactive: 6.1%
COc1ccc(C(=O)Nc2ccc(C)c(S(=O)(=O)N3CCOCC3)c2)cc1S(=O)(=O)N1CCCC1 | – | inactive: -20.9%
COc1ccc(N=[N+]([O-])c2ccc(OC)cc2)cc1 | inconclusive: 20.6 µM [activator, single point] | –
CC1=NN(C(N)=S)C(=O)C1N=Nc1ccccc1C (centres undefined) | inconclusive: 16.4 µM [activator, partial curve, poor fit] | –
CCOc1ccc(C2c3cc(OCC)c(OCC)cc3CC(=O)N2c2ccc(C(=O)O)cc2)cc1OCC (centres undefined) | inconclusive: 25.9 µM [falling, partial curve, poor fit] | –

Source: PubChem BioAssay AID504444 (National Center for Advancing Translational Sciences (NCATS), 2011)
